According to patent publication US9526785B2, “Pharmaceuticals for oral delivery” (Enteris BioPharma, Inc., priority 2013, dated 2016):
Several values for one entry are separate records, joined by “and”; a condition that tells them apart may be missing. Equal entries are not always repeated. The source gives many values for each of these; only a part stands here.

Assay: Tigecycline plasma PK and % F after PO enteric-coated capsule in dogs
Assay type: in vivo, Beagle dogs
Conditions: individual dogs
Experimental: Adult beagle dogs weighing approximately 9 to 15 kg were used in the study. […] Room temperature was set to be maintained between approximately 20±5° C. Relative humidity was monitored but not controlled.
TEKLAD™ Certified Canine Diet was provided once daily in amounts (˜400 grams) appropriate for the size and age of the animals. Tap water was available ad libitum via automatic watering device or water bowls.
Oral dosing of enteric-coated capsules was accomplished by administering them to the back of the dog's mouth, followed by a chase of 5 mL water to ensure swallowing.
Water was provided ad libitum. […] Subsequently, each group of animals was dosed based on the protocol, i.e. either IV, or PO by capsule.
Minocycline (VWR international) was used as an internal standard. Sample processing/clean-up of plasma samples was carried out offline by protein precipitation with acidified acetonitrile using 0.5% trifluoroacetic acid (TFA).
The HPLC system consisted of Shimadzu SIL-HTc HPLC system equipped with dual Shimadzu LC-10ADvp isopumps, a Shimadzu CTO-10ASvp column temperature controller and a Shimadzu SPD-10Avp variable wavelength detector. […] Mobile phase A consisted of 23 mM phosphate buffer pH 2.5 with 4 mM 1-octanesulfonic acid, while mobile phase B consisting of 90% acetonitrile, 10% water, with 2 mM 1-octanesulfonic acid. […] The total runtime was 18 minutes per sample. The mobile phase flow rate was 1.2 mL/min. Detection was performed using the SPD-10Avp variable wavelength detector set at 350 nm, with a sensitivity of 0.001 aufs.
The samples were then centrifuged under refrigeration at 13 k rpm for 5 minutes. The supernatant was taken and the liquid removed to dryness under nitrogen in a turbovap. The dried extract was reconstituted in 60 μL of mobile phase A and the suspension was further centrifuged at 5 k rpm for 5 minutes to pellet any insoluble matter. The resulting supernatant was then injected onto the LC.
The unknown concentration in dog plasma samples was determined by interpolation of the peak area ratios of analyte:internal standard versus the ratio of their nominal concentrations into the regression line obtained from calibration standards spiked in pooled dog plasma. No regression weighting was used for the calculations. […] The calibration curve covered the range of 0.05 μg/mL to 5 μg/mL. […]
The capsules were enterically coated using a standard preclinical protocol to 10% weight gain. Two studies were conducted.

With CN(C)c1cc(NC(=O)CNC(C)(C)C)c(O)c2c1C[C@H]1C[C@H]3[C@H](N(C)C)C(O)=C(C(N)=O)C(=O)[C@@]3(O)C(O)=C1C2=O [Tigecycline] the “Tigecycline Plasma Concentration” value (0 min, PO 15 mg enteric-coated capsule with 500 mg CA and 100 mg LLC, SC424) was 0.00 ng/mL, the “Tigecycline Plasma Concentration” value (0.0 hr, PO 30 mg unformulated enteric-coated capsule, SC430) was 0.00 ng/mL and the “Tigecycline Plasma Concentration” value (15 min, PO 15 mg enteric-coated capsule with 500 mg CA and 100 mg LLC, SC424) was 0.00 ng/mL. For the same molecule, the “Tigecycline Plasma Concentration” value (0.3 hr, PO 30 mg unformulated enteric-coated capsule, SC430) was 0.00 ng/mL, the “Tigecycline Plasma Concentration” value (30 min, PO 15 mg enteric-coated capsule with 500 mg CA and 100 mg LLC, SC424) was 0.00 ng/mL and the “Tigecycline Plasma Concentration” value (0.7 hr, PO 30 mg unformulated enteric-coated capsule, SC430) was 0.00 ng/mL. For the same molecule, the “Tigecycline Plasma Concentration” value (45 min, PO 15 mg enteric-coated capsule with 500 mg CA and 100 mg LLC, SC424) was 0.00 ng/mL (7×) and 67.62 ng/mL, the “Tigecycline Plasma Concentration” value (60 min, PO 15 mg enteric-coated capsule with 500 mg CA and 100 mg LLC, SC424) was 0.00 ng/mL (6×) and 102.56 ng/mL and 46.91 ng/mL and the “Tigecycline Plasma Concentration” value (1.0 hr, PO 30 mg unformulated enteric-coated capsule, SC430) was 0.00 ng/mL. The “Tigecycline Plasma Concentration” value (75 min, PO 15 mg enteric-coated capsule with 500 mg CA and 100 mg LLC, SC424) was 67.41 ng/mL and 0.00 ng/mL (3×) and 124.71 ng/mL and 44.94 ng/mL and 97.41 ng/mL and 34.28 ng/mL, the “Tigecycline Plasma Concentration” value (90 min, PO 15 mg enteric-coated capsule with 500 mg CA and 100 mg LLC, SC424) was 72.72 ng/mL and 0.00 ng/mL (3×) and 131.62 ng/mL and 58.36 ng/mL and 74.02 ng/mL and 93.83 ng/mL and the “Tigecycline Plasma Concentration” value (120 min, PO 15 mg enteric-coated capsule with 500 mg CA and 100 mg LLC, SC424) was 68.67 ng/mL and 0.00 ng/mL and 102.31 ng/mL and 83.74 ng/mL and 15.40 ng/mL and 42.92 ng/mL and 47.02 ng/mL and 51.68 ng/mL. For the same molecule, the “Tigecycline Plasma Concentration” value (2.0 hr, PO 30 mg unformulated enteric-coated capsule, SC430) was 0.00 ng/mL, the “Tigecycline Plasma Concentration” value (150 min, PO 15 mg enteric-coated capsule with 500 mg CA and 100 mg LLC, SC424) was 40.67 ng/mL and 0.00 ng/mL and 107.71 ng/mL and 78.99 ng/mL and 12.76 ng/mL and 25.44 ng/mL and 35.51 ng/mL and 32.23 ng/mL and the “Tigecycline Plasma Concentration” value (180 min, PO 15 mg enteric-coated capsule with 500 mg CA and 100 mg LLC, SC424) was 41.02 ng/mL and 33.29 ng/mL and 82.31 ng/mL and 73.35 ng/mL and 10.38 ng/mL and 17.06 ng/mL and 21.14 ng/mL and 20.67 ng/mL. For the same molecule, the “Tigecycline Plasma Concentration” value (180 min, PO 15 mg unformulated enteric-coated capsule, SC424) was 0.00 ng/mL, the “Tigecycline Plasma Concentration” value (3.0 hr, PO 30 mg unformulated enteric-coated capsule, SC430) was 0.00 ng/mL and the “Tigecycline Plasma Concentration” value (210 min, PO 15 mg enteric-coated capsule with 500 mg CA and 100 mg LLC, SC424) was 34.32 ng/mL and 39.92 ng/mL and 80.92 ng/mL and 73.72 ng/mL and 3.16 ng/mL and 18.51 ng/mL and 19.45 ng/mL and 20.23 ng/mL. For the same molecule, the “Tigecycline Plasma Concentration” value (210 min, PO 15 mg unformulated enteric-coated capsule, SC424) was 0.00 ng/mL, the “Tigecycline Plasma Concentration” value (240 min, PO 15 mg enteric-coated capsule with 500 mg CA and 100 mg LLC, SC424) was 35.68 ng/mL and 25.96 ng/mL and 98.76 ng/mL and 72.67 ng/mL and 7.56 ng/mL and 4.89 ng/mL and 16.45 ng/mL and 19.58 ng/mL and the “Tigecycline Plasma Concentration” value (240 min, PO 15 mg unformulated enteric-coated capsule, SC424) was 0.00 ng/mL. The “Tigecycline Plasma Concentration” value (4.0 hr, PO 30 mg unformulated enteric-coated capsule, SC430) was 0.00 ng/mL, the “Tigecycline Plasma Concentration” value (5.0 hr, PO 30 mg unformulated enteric-coated capsule, SC430) was 0.00 ng/mL and the “Tigecycline Plasma Concentration” value (6.0 hr, PO 30 mg unformulated enteric-coated capsule, SC430) was 0.00 ng/mL. For the same molecule, the “Tigecycline Plasma Concentration” value (8.0 hr, PO 30 mg unformulated enteric-coated capsule, SC430) was 0.00 ng/mL, the “Tigecycline Plasma Concentration” value (10.0 hr, PO 30 mg unformulated enteric-coated capsule, SC430) was 0.00 ng/mL and the “Tigecycline Plasma Concentration” value (Time (min) 0.0, PO 30 mg enteric-coated capsule with 500 mg CA and 100 mg LLC, SC430) was 0.00 ng/mL. For the same molecule, the “Tigecycline Plasma Concentration” value (Time (min) 0.0, PO 45 mg enteric-coated capsule with 500 mg CA and 100 mg LLC, SC430) was 0.00 ng/mL, the “Tigecycline Plasma Concentration” value (Time (min) 0.3, PO 30 mg enteric-coated capsule with 500 mg CA and 100 mg LLC, SC430) was 0.00 ng/mL and the “Tigecycline Plasma Concentration” value (Time (min) 0.3, PO 45 mg enteric-coated capsule with 500 mg CA and 100 mg LLC, SC430) was 0.00 ng/mL. The “Tigecycline Plasma Concentration” value (Time (min) 0.7, PO 30 mg enteric-coated capsule with 500 mg CA and 100 mg LLC, SC430) was 0.00 ng/mL (3×) and 95.94 ng/mL and 36.01 ng/mL, the “Tigecycline Plasma Concentration” value (Time (min) 0.7, PO 45 mg enteric-coated capsule with 500 mg CA and 100 mg LLC, SC430) was 0.00 ng/mL and the “Tigecycline Plasma Concentration” value (Time (min) 1.0, PO 30 mg enteric-coated capsule with 500 mg CA and 100 mg LLC, SC430) was 0.00 ng/mL (3×) and 154.19 ng/mL and 90.62 ng/mL.
